Results are given in words; binding and its absence hold for the method and conditions named. In cells and extracts the contact can be indirect. These calls come from enrichment with a bait or labelling near it, and not all partners need be listed. Where a sequence is shown, tags or fusion partners need not be part of it.
T1: Twin-Strep-tagged Psb27 (Thermosynechococcus vestitus BP-1) (UniProt Q8DG60)
T1 sequence (chain, lipid-modified N-terminal cysteine (Cmod)): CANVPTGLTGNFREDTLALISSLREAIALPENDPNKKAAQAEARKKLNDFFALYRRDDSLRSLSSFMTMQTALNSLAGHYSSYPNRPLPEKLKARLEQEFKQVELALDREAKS

Amino acid sequences for entries named in this document (tags omitted). A change or cut given only in a name is not applied to a line headed by its entry. Residues count along the entry.
UniProt Q8DIQ1: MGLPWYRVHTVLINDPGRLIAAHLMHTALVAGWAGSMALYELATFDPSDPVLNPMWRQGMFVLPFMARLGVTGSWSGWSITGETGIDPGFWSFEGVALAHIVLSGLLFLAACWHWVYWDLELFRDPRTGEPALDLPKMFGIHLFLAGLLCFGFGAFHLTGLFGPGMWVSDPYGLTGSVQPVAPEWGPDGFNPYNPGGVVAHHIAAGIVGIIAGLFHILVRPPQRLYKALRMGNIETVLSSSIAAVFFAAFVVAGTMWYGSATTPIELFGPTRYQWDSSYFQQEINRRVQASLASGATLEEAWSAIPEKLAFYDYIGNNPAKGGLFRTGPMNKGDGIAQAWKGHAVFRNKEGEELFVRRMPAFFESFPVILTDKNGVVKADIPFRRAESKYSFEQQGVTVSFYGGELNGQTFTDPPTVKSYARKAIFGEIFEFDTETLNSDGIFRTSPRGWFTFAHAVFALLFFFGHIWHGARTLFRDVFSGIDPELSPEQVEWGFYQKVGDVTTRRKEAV
UniProt Q8DIP0: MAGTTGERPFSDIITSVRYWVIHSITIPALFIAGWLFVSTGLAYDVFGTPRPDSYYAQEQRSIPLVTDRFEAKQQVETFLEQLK
UniProt Q8DJ43: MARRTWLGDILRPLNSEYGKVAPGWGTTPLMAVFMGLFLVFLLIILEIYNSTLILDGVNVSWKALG
UniProt P0A431, residues 27-272: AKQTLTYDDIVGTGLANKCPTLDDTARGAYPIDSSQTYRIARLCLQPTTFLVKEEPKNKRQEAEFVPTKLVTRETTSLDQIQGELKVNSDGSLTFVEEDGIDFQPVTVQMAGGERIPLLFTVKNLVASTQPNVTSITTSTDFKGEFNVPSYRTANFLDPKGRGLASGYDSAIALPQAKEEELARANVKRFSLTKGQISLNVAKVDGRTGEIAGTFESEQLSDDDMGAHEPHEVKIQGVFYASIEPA
UniProt Q9F1L5: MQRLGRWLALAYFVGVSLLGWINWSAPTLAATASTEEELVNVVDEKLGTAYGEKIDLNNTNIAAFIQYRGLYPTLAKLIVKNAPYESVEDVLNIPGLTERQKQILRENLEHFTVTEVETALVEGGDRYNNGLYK

T2: Twin-Strep-tagged Psb27 (Thermosynechococcus vestitus BP-1), Q8DG60
T2 chain: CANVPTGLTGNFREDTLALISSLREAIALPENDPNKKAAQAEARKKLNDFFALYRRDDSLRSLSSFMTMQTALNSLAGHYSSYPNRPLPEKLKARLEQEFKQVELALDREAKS

B1: CyanoP, Q8DH84 20-183 (protein)
chain: CSATSGLQAYVDSYDGYEFLYPRGWVQVQVEDPVDVVFHDIIETTENVSVVVNTVASTKSLEELGSPEEVGDRLLRNIIAPSESGRSSALIAATSQKADDKTYYILEYAVTLPGDGNTAQQRHNLSSIAVSRGKVYTLSVSAPEERWPKVEDQFKTIVSSFTVY
modifications: here or on the partner: lipid-modified N-terminal cysteine (Cmod)
B2: PsbZ (protein, UniProt Q8DHJ2 1-62)
chain: MTILFQLALAALVILSFVMVIGVPVAYASPQDWDRSKQLIFLGSGLWIALVLVVGVLNFFVV
B3: Psb34 (protein, UniProt Q8DMP8 1-56)
chain: MRYTTDEGGRLNNFAIEPKVYQAQPWTPQQKVRAALLVGGGLLLVAGLVAIAVGVS
B4: Psb28 (protein, UniProt Q8DLJ8 1-116)
chain: MGAMAEIQFIRGINEEVVPDVRLTRARDGSSGQAMFYFDNPKIVQEGNLEVTGMYMVDEEGEIVTRDVNAKFINGQPVAIEATYTMRSPQEWDRFIRFMDRYAASHGLGFQKSENS
B5: CyanoQ (protein, UniProt Q8DHA2 24-152)
chain: CGGPSATTPPPPTYSELQITRIQDYLRDIEKNAERFADLEVSVAKGDWQEARNIMRGPLGEMLMDMRALNRNLLAKDQPTPTALTRALTDDFLKIDQGADLDSVTVAQEGFREAEADFKAYLNSLPELS
B6: PsbV (protein, UniProt P0A386 27-163)
chain: AELTPEVLTVPLNSEGKTITLTEKQYLEGKRLFQYACASCHVGGITKTNPSLDLRTETLALATPPRDNIEGLVDYMKNPTTYDGEQEIAEVHPSLRSADIFPKMRNLTEKDLVAIAGHILVEPKILGDKWGGGKVYY

molecular target: T1, Twin-Strep-tagged Psb27 (Thermosynechococcus vestitus BP-1); test: affinity purification with mass spectrometry; conditions: not given

binding, binds:
CP43 (PsbC) (from UniProt Q8DIF8 1-461), CP47 (PsbB) (from UniProt Q8DIQ1 1-510), D2 (PsbD) (from UniProt Q8CM25 1-352), FtsH, PsbE (from UniProt Q8DIP0 1-84), PsbH (from UniProt Q8DJ43 1-66), PsbO (from UniProt P0A431 27-272), PsbU (from UniProt Q9F1L5)

Molecular target: T2, Twin-Strep-tagged Psb27 …
Test: affinity purification with mass spectrometry
Conditions: remark: other sources report otherwise

binding, binds:
B1

molecular target: T1, Twin-Strep-tagged Psb27 (Thermosynechococcus vestitus BP-1); test: affinity purification with mass spectrometry; conditions: not given; remark: another data set of the same source

binding, binds:
B2, B3, B4, B5, B6
